The source of these data is article PMC11830799.

The target in the assay is GST fusion protein of the wild-type carboxyl terminus of MAS (GST-MAS-CT). The experiment in a line: pull-down; lysates of COS-7 cells transfected with Flag-MAGI3 pulled down with wild-type GST-MAS-CT or the ETVA mutant, Western blot; only the target purified. Background: A western blot detects proteins with antibodies after separation by electrophoresis.

No constants are given. Whether binding was seen depends on the method and setting. Binding seen in cells or lysates may run through a third protein. Binding can be weak; no strength is given. Tags and fused reporters may be left off the sequences shown.

B1: Flag-tagged full-length MAGI3 (protein, UniProt Q5TCQ9 1-1481)
chain: MSKTLKKKKHWLSKVQECAVSWAGPPGDFGAEIRGGAERGEFPYLGRLREEPGGGTCCVVSGKAPSPGDVLLEVNGTPVSGLTNRDTLAVIRHFREPIRLKTVKPGKVINKDLRHYLSLQFQKGSIDHKLQQVIRDNLYLRTIPCTTRAPRDGEVPGVDYNFISVEQFKALEESGALLESGTYDGNFYGTPKPPAEPSPFQPDPVDQVLFDNEFDAESQRKRTTSVSKMERMDSSLPEEEEDEDKEAINGSGNAENRERHSESSDWMKTVPSYNQTNSSMDFRNYMMRDETLEPLPKNWEMAYTDTGMIYFIDHNTKTTTWLDPRLCKKAKAPEDCEDGELPYGWEKIEDPQYGTYYVDHLNQKTQFENPVEEAKRKKQLGQVEIGSSKPDMEKSHFTRDPSQLKGVLVRASLKKSTMGFGFTIIGGDRPDEFLQVKNVLKDGPAAQDGKIAPGDVIVDINGNCVLGHTHADVVQMFQLVPVNQYVNLTLCRGYPLPDDSEDPVVDIVAATPVINGQSLTKGETCMNPQDFKPGAMVLEQNGKSGHTLTGDGLNGPSDASEQRVSMASSGSSQPELVTIPLIKGPKGFGFAIADSPTGQKVKMILDSQWCQGLQKGDIIKEIYHQNVQNLTHLQVVEVLKQFPVGADVPLLILRGGPPSPTKTAKMKTDKKENAGSLEAINEPIPQPMPFPPSIIRSGSPKLDPSEVYLKSKTLYEDKPPNTKDLDVFLRKQESGFGFRVLGGDGPDQSIYIGAIIPLGAAEKDGRLRAADELMCIDGIPVKGKSHKQVLDLMTTAARNGHVLLTVRRKIFYGEKQPEDDSSQAFISTQNGSPRLNRAEVPARPAPQEPYDVVLQRKENEGFGFVILTSKNKPPPGVIPHKIGRVIEGSPADRCGKLKVGDHISAVNGQSIVELSHDNIVQLIKDAGVTVTLTVIAEEEHHGPPSGTNSARQSPALQHRPMGQSQANHIPGDRSALEGEIGKDVSTSYRHSWSDHKHLAQPDTAVISVVGSRHNQNLGCYPVELERGPRGFGFSLRGGKEYNMGLFILRLAEDGPAIKDGRIHVGDQIVEINGEPTQGITHTRAIELIQAGGNKVLLLLRPGTGLIPDHGDWDINNPSSSNVIYDEQSPLPPSSHFASIFEESHVPVIEESLRVQICEKAEELKDIVPEKKSTLNENQPEIKHQSLLQKNVSKRDPPSSHGHSNKKNLLKVENGVTRRGRSVSPKKPASQHSEEHLDKIPSPLKNNPKRRPRDQSLSPSKGENKSCQVSTRAGSGQDQCRKSRGRSASPKKQQKIEGSKAPSNAEAKLLEGKSRRIAGYTGSNAEQIPDGKEKSDVIRKDAKQNQLEKSRTRSPEKKIKRMVEKSLPSKMTNKTTSKEVSENEKGKKVTTGETSSSNDKIGENVQLSEKRLKQEPEEKVVSNKTEDHKGKELEAADKNKETGRFKPESSSPVKKTLITPGPWKVPSGNKVTGTIGMAEKRQ
Regarding B1, the binding entry is given as “binds”.
